Data reported in US20100285005A1 (Eli Lilly, published 2010).
No constants are given. Whether binding was seen depends on the method and setting. Binding can be weak; no strength is given.

Each binder was assayed against human CXCR4 receptor with a C-terminal linear C9 peptide tag (human) (assay: SPR (Biacore 2000), C9-tagged CXCR4 captured by 1D4 antibody, 4 °C).

Binder | binding
Antibody III (antibody, human IgG4 S228P, kappa, F234A L235A, V domains shown, Human engineered anti-CXCR4 antibody; also called the antibody III) VH: EVQLVESGGGLVQPGGSLRLSCAASGFTSTDYYFSWVRQAPGKGLEWVGFIRYKSKGYTTEYSGSVKGRFTISRDDSKNSLYLQMNSLKTEDTAVYYCAREPITTDPRDYWGQGTLVTVSS VL: DIVMTQSPDSLAVSLGERATINCKSSQSLFNSRTRKKYLAWYQQKPGQPPKLLIYWASKRKSGVPDRFSGSGSGTDFTLTISSLQAEDVAVYYCKQSRFLRAFGQGTKLEIKR | binds
Antibody II (antibody, human IgG4 S228P, kappa, F234A L235A, V domains shown) VH: EVQLVESGGGLVQPGGSLRLSCAASGFTSTDYYFSWVRQAPGKGLEWVGFIRSKSKGYTTEYSGSVKGRFTISRDDSKNSLYLQMNSLKTEDTAVYYCAREPITTDPRDYWGQGTLVTVSS VL: DIVMTQSPDSLAVSLGERATINCKSSQSLFNSRTRKKYLAWYQQKPGQPPKLLIYWASKRKSGVPDRFSGSGSGTDFTLTISSLQAEDVAVYYCKQSRFLRAFGQGTKLEIKR | binds
Antibody IV (antibody, human IgG4 S228P, kappa, F234A L235A, V domains shown) VH: EVQLVESGGGLVQPGGSLRLSCAASGFTSTDYYFSWVRQAPGKGLEWVGFIRNKRKGYTTEYSGSVKGRFTISRDDSKNSLYLQMNSLKTEDTAVYYCAREPITTDPRDYWGQGTLVTVSS VL: DIVMTQSPDSLAVSLGERATINCKSSQSLFNSRTRKKYLAWYQQKPGQPPKLLIYWASKRKSGVPDRFSGSGSGTDFTLTISSLQAEDVAVYYCKQSRFLRAFGQGTKLEIKR | binds
Antibody I (antibody, human IgG4 S228P, kappa, F234A L235A, V domains shown) VH: EVQLVESGGGLVQPGGSLRLSCAASGFTSTDYYFSWVRQAPGKGLEWVGFIRTKSKGYTTEYSGSVKGRFTISRDDSKNSLYLQMNSLKTEDTAVYYCAREPITTDPRDYWGQGTLVTVSS VL: DIVMTQSPDSLAVSLGERATINCKSSQSLFNSRTRKKYLAWYQQKPGQPPKLLIYWASKRKSGVPDRFSGSGSGTDFTLTISSLQAEDVAVYYCKQSRFLRAFGQGTKLEIKR | binds
Antibody V (antibody, human IgG4 S228P, kappa, F234A L235A, V domains shown) VH: EVQLVESGGGLVQPGGSLRLSCAASGFTSTDYYFSWVRQAPGKGLEWVGFIRHKSKGYTTEYSGSVKGRFTISRDDSKNSLYLQMNSLKTEDTAVYYCAREPITTDPRDYWGQGTLVTVSS VL: DIVMTQSPDSLAVSLGERATINCKSSQSLFNSRTRKKYLAWYQQKPGQPPKLLIYWASKRKSGVPDRFSGSGSGTDFTLTISSLQAEDVAVYYCKQSRFLRAFGQGTKLEIKR | binds
